No constants are given. Whether binding was seen depends on the method and setting. Binding calls can cover weak binding; strength is not graded here.
How the values were obtained:
Assay in all cases: cryo-EM structure; 6 µM paclitaxel-stabilised microtubules laid on the grid, then 40 µM KIF20A 1–565 in BRB40 (40 mM PIPES pH 6.8, 1 mM MgCl2, 1 mM EGTA) with 20 µM paclitaxel and apyrase (nucleotide-free), room temperature; two classes (class-1, class-2); both purified
[1] = target: β-tubulin (in the porcine brain microtubule of the cryo-EM structure) (porcine)
[2] = target: α-tubulin (in the porcine brain microtubule of the cryo-EM structure) (porcine) (UniProt Q2XVP4)
[3] = target: microtubules from porcine brain tubulin (cryo-EM preparation) (porcine)

The chains behind the UniProt entries cited, without tags or fusion partners. Where a name states a change or a piece, a line headed by the entry shows the natural chain unless it says otherwise.
UniProt Q2XVP4: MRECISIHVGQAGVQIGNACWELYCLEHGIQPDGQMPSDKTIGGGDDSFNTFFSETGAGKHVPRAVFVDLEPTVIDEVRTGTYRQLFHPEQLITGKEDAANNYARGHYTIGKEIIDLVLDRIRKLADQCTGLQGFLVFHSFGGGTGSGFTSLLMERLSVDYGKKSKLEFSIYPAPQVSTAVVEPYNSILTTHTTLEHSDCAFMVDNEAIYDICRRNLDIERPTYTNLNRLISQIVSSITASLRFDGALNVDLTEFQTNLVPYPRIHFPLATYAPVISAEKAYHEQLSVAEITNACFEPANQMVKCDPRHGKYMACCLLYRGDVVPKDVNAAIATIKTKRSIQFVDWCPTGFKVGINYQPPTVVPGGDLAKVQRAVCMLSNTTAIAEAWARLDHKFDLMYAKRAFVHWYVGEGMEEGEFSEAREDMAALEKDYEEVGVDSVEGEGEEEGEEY

- binding [1]: binds
- binding [2]: binds
- binding [3]: binds
B1: KIF20A 1–565 (full-length functional motor domain) (domain or fragment, UniProt P97329 1-565)
chain: MSHRILSPPAGLLSDEDVVDSPILESTAADLRSVVRKDLLSDCSVISASLEDKQALLEDTSEKVKVYLRIRPFLTSELDRQEDQGCVCIENTETLVLQAPKDSFALKSNERGVGQATHKFTFSQIFGPEVGQVAFFNLTMKEMVKDVLKGQNWLIYTYGVTNSGKTYTIQGTSKDAGILPQSLALIFNSLQGQLHPTPDLKPLLSNEVIWLDSKQIRQEEMKKLSLLIGGLQEEELSTSVKKRVHTESRIGASNSFDSGVAGLSSTSQFTSSSQLDETSQLWAQPDTVPVSVPADIRFSVWISFFEIYNELLYDLLEPPSHQHKRQTLRLCEDQNGNPYVKDLNWIHVRDVEEAWKLLKVGRKNQSFASTHMNQQSSRSHSIFSIRILHLQGEGDIVPKISELSLCDLAGSERCKHQKSGERLKEAGNINTSLHTLGRCIAALRQNQQNRSKQNLIPFRDSKLTRVFQGFFTGRGRSCMIVNVNPCASTYDETLHAAKFSALASQLVHAPPVHLGIPSLHSFIKKHSPQVGPGLEKEDKADSDLEDSPEDEADVSVYGKEELLQV

From article PMC10508983, “Nucleotide-free structures of KIF20A illuminate atypical mechanochemistry in this kinesin-6” (Open Biology, 2023)
